In article PMC9021288 (Nature Communications, 2022):

Test: in vitro
Conditions: human

- Papp A→B at 9000 Sec, 2 µM (Caco-2, pH 7.4): 0.4 ×10⁻⁶ cm/s
- Papp B→A at 9000 Sec, 2 µM (Caco-2, pH 7.4): 0.4 ×10⁻⁶ cm/s
- efflux ratio at 9000 Sec, 2 µM (Caco-2, pH 7.4): 1
- Papp at 9000 Sec, 2 µM (Caco-2, pH 7.4, Papp n=1, 2): 0.37 ×10⁻⁶ cm/s
Compound: CC(C)NCC(O)COc1ccc(CC(N)=O)cc1 (stereo not shown) [Atenolol]
